Some of the results follow. Small differences around the control level are noise.
Tests used:
Details in all cases: 5 µM; treatment: days 7-14 after plating, readout day 21
[1] = test system: hPSC-derived cortical neurons (WA09); assay: nucleus area z-score vs screen plate; higher = larger nuclei (more mature)
[2] = test system: hPSC-derived cortical neurons (WA09); assay: total neurite length per nucleus (MAP2) z-score; higher = more neurite growth
[3] = test system: hPSC-derived cortical neurons (WA09); assay: nucleus roundness z-score vs screen plate; higher = rounder nuclei (more mature)
[4] = test system: hPSC-derived cortical neurons (WA09); assay: KCl-induced FOS+/EGR-1+ double-positive nuclei fraction z-score (KCl minus unstimulated); higher = stronger activity-induced IEG response

## CC(C)n1cnc2c(NCCc3ccc(O)cc3)nc(-c3csc4ccccc34)nc21 [StemRegenin 1 (SR1)]
[1]
  nucleus area z-score: -1.99
[2]
  total neurite length per nucleus (z-score): -0.0252
[3]
  nucleus roundness z-score: 0.315
[4]
  KCl-induced FOS+/EGR-1+ double-positive nuclei fraction z-score: 0.175

## CC(=O)O[C@]1(C(C)=O)CC[C@H]2[C@@H]3C=C(Cl)C4=CC(=O)CC[C@]4(C)[C@H]3CC[C@@]21C [Chlormadinone acetate]
[1]
  nucleus area z-score: 0.636
[2]
  total neurite length per nucleus (z-score): 0.655
[3]
  nucleus roundness z-score: 0.262
[4]
  KCl-induced FOS+/EGR-1+ double-positive nuclei fraction z-score: 0.952

## Cc1nc(C#Cc2ccnc(Cl)c2)c(C)n1-c1ccc(OC(F)(F)F)cc1
[1]
  nucleus area z-score: 0.64
[2]
  total neurite length per nucleus (z-score): 0.00831
[3]
  nucleus roundness z-score: 0.308
[4]
  KCl-induced FOS+/EGR-1+ double-positive nuclei fraction z-score: -0.509

## COc1ccc2[nH]c([S+]([O-])Cc3ncc(C)c(OC)c3C)nc2n1 (centres undefined) [Tenatoprazole]
[1]
  nucleus area z-score: 0.454
[2]
  total neurite length per nucleus (z-score): -0.409
[3]
  nucleus roundness z-score: -0.123
[4]
  KCl-induced FOS+/EGR-1+ double-positive nuclei fraction z-score: 0.611

## COc1ccc(Cl)cc1NC(=O)Nc1cc(C)nc2ccccc12
[1]
  nucleus area z-score: -0.436
[2]
  total neurite length per nucleus (z-score): 0.681
[3]
  nucleus roundness z-score: -0.0493
[4]
  KCl-induced FOS+/EGR-1+ double-positive nuclei fraction z-score: -0.152

## CCCc1cc(C(N)=S)ccn1 [Protionamide]
[1]
  nucleus area z-score: 0.707
[2]
  total neurite length per nucleus (z-score): -0.278
[3]
  nucleus roundness z-score: -0.26
[4]
  KCl-induced FOS+/EGR-1+ double-positive nuclei fraction z-score: -0.764

## O=C1CCc2c(ccc3ccccc23)O1 [Splitomicin]
[1]
  nucleus area z-score: 0.152
[2]
  total neurite length per nucleus (z-score): 0.548
[3]
  nucleus roundness z-score: 1.26
[4]
  KCl-induced FOS+/EGR-1+ double-positive nuclei fraction z-score: 0.832

## CCCCCCCCCCCC[N+](C)(C)CCOc1ccccc1 [Domiphen Bromide]
[1]
  nucleus area z-score: -14.1
[2]
  total neurite length per nucleus (z-score): -4.58
[3]
  nucleus roundness z-score: -5.88
[4]
  KCl-induced FOS+/EGR-1+ double-positive nuclei fraction z-score: -0.127

## CCCCOC(=O)c1ccc(O)cc1 [Butylparaben]
[1]
  nucleus area z-score: -0.366
[2]
  total neurite length per nucleus (z-score): -1.22
[3]
  nucleus roundness z-score: -0.823
[4]
  KCl-induced FOS+/EGR-1+ double-positive nuclei fraction z-score: -0.716

## C[C@H](NC(=O)CCc1nc2ccccc2c(=O)[nH]1)c1ccccc1
[1]
  nucleus area z-score: 0.593
[2]
  total neurite length per nucleus (z-score): 0.313
[3]
  nucleus roundness z-score: 0.0206
[4]
  KCl-induced FOS+/EGR-1+ double-positive nuclei fraction z-score: 0.797

## CN(C)CCN1C(=O)c2cccc3cc(N)cc(c23)C1=O [Amonafide]
[1]
  nucleus area z-score: -0.239
[2]
  total neurite length per nucleus (z-score): 1.07
[3]
  nucleus roundness z-score: -0.41
[4]
  KCl-induced FOS+/EGR-1+ double-positive nuclei fraction z-score: -0.337

## CCCCC(=O)O[C@H]1CC[C@H]2[C@@H]3CCc4cc(O)ccc4[C@H]3CC[C@]12C [Estradiol valerate]
[1]
  nucleus area z-score: 1.24
[2]
  total neurite length per nucleus (z-score): 0.346
[3]
  nucleus roundness z-score: 0.724
[4]
  KCl-induced FOS+/EGR-1+ double-positive nuclei fraction z-score: 0.268

## Nc1cc(F)ccc1NC(=O)/C=C/c1cnn(C/C=C/c2ccccc2)c1
[1]
  nucleus area z-score: 0.0344
[2]
  total neurite length per nucleus (z-score): 0.249
[3]
  nucleus roundness z-score: 0.18
[4]
  KCl-induced FOS+/EGR-1+ double-positive nuclei fraction z-score: -0.256

## OCCN(CCO)c1nc(N2CCCCC2)c2nc(N(CCO)CCO)nc(N3CCCCC3)c2n1 [Dipyridamole]
[1]
  nucleus area z-score: 0.448
[2]
  total neurite length per nucleus (z-score): -0.739
[3]
  nucleus roundness z-score: 0.396
[4]
  KCl-induced FOS+/EGR-1+ double-positive nuclei fraction z-score: -0.346

## CN(C(=O)c1ccc(F)cc1C(F)(F)F)C1CCN(c2nnc(-c3ccnn3C)c3ccccc23)CC1
[1]
  nucleus area z-score: -0.46
[2]
  total neurite length per nucleus (z-score): 1.82
[3]
  nucleus roundness z-score: 0.28
[4]
  KCl-induced FOS+/EGR-1+ double-positive nuclei fraction z-score: -0.242

## CN1CCC(=C2c3ccccc3CCn3c(C=O)cnc32)CC1 [Alcaftadine]
[1]
  nucleus area z-score: 1.63
[2]
  total neurite length per nucleus (z-score): -1.37
[3]
  nucleus roundness z-score: -0.78
[4]
  KCl-induced FOS+/EGR-1+ double-positive nuclei fraction z-score: -0.67

## CCn1cc(C(=O)O)c(=O)c2cc(F)c(N3CCNCC3)cc21 [Norfloxacin]
[1]
  nucleus area z-score: 0.494
[2]
  total neurite length per nucleus (z-score): 0.131
[3]
  nucleus roundness z-score: -0.323
[4]
  KCl-induced FOS+/EGR-1+ double-positive nuclei fraction z-score: 0.513

## Cc1cc(O)c2c(c1)C(=O)c1cc(O)cc(O)c1C2=O [Emodin]
[1]
  nucleus area z-score: 0.558
[2]
  total neurite length per nucleus (z-score): -0.595
[3]
  nucleus roundness z-score: 0.498
[4]
  KCl-induced FOS+/EGR-1+ double-positive nuclei fraction z-score: -0.462

## COC(=O)[C@]12CCC(C)(C)C[C@H]1[C@H]1C(=O)C=C3[C@@]4(C)C=C(C#N)C(=O)C(C)(C)[C@@H]4CC[C@@]3(C)[C@]1(C)CC2 [Bardoxolone Methyl]
[1]
  nucleus area z-score: -17.6
[2]
  total neurite length per nucleus (z-score): -6.5
[3]
  nucleus roundness z-score: -15.5
[4]
  KCl-induced FOS+/EGR-1+ double-positive nuclei fraction z-score: -2.34

## Nc1ccc(S(=O)(=O)Nc2nccs2)cc1 [Sulfathiazole]
[1]
  nucleus area z-score: 0.6
[2]
  total neurite length per nucleus (z-score): 0.596
[3]
  nucleus roundness z-score: 0.497
[4]
  KCl-induced FOS+/EGR-1+ double-positive nuclei fraction z-score: 0.512

## CCOc1nc2cccc(C(=O)OCc3oc(=O)oc3C)c2n1Cc1ccc(-c2ccccc2-c2noc(=O)[nH]2)cc1 [Azilsartan Medoxomil]
[1]
  nucleus area z-score: 0.493
[2]
  total neurite length per nucleus (z-score): 1.07
[3]
  nucleus roundness z-score: 1.88
[4]
  KCl-induced FOS+/EGR-1+ double-positive nuclei fraction z-score: 1.66

## Cc1[nH]c(=O)c(C#N)cc1-c1ccncc1 [Milrinone]
[1]
  nucleus area z-score: 1.23
[2]
  total neurite length per nucleus (z-score): 0.973
[3]
  nucleus roundness z-score: 0.0694
[4]
  KCl-induced FOS+/EGR-1+ double-positive nuclei fraction z-score: 1.54

## CC1(C)CCC(C)(C)c2cc(NC(=O)c3ccc(C(=O)O)cc3)ccc21 [Tamibarotene]
[1]
  nucleus area z-score: 1.27
[2]
  total neurite length per nucleus (z-score): -0.392
[3]
  nucleus roundness z-score: -0.318
[4]
  KCl-induced FOS+/EGR-1+ double-positive nuclei fraction z-score: 0.144

## COc1ccc(-c2ccc3c(N4CCOC[C@@H]4C)nc(N4CCOC[C@@H]4C)nc3n2)cc1CO
[1]
  nucleus area z-score: -5.24
[2]
  total neurite length per nucleus (z-score): -1.34
[3]
  nucleus roundness z-score: -3.45
[4]
  KCl-induced FOS+/EGR-1+ double-positive nuclei fraction z-score: -0.998

## CC1Cc2ccccc2N1NC(=O)c1ccc(Cl)c(S(N)(=O)=O)c1 (centres undefined) [Indapamide]
[1]
  nucleus area z-score: -0.62
[2]
  total neurite length per nucleus (z-score): 0.576
[3]
  nucleus roundness z-score: 0.22
[4]
  KCl-induced FOS+/EGR-1+ double-positive nuclei fraction z-score: 0.281

## C/C=C(/C)C(=O)O[C@H]1[C@H](OC(C)=O)[C@@]2(CO)C(CC1(C)C)C1=CCC3[C@@]4(C)CCC(O[C@@H]5O[C@H](C(=O)O)[C@@H](O[C@@H]6O[C@H](CO)[C@@H](O)[C@H](O)[C@H]6O)[C@H](O)[C@H]5O[C@@H]5O[C@H](CO)[C@@H](O)[C@H](O)[C@H]5O)[C@](C)(CO)C4CC[C@@]3(C)[C@]1(C)C[C@H]2O.C/C=C(\C)C(=O)O[C@H]1[C@H](OC(C)=O)[C@@]2(CO)C(CC1(C)C)C1=CCC3[C@@]4(C)CCC(O[C@@H]5O[C@H](C(=O)O)[C@@H](O[C@@H]6O[C@H](CO)[C@@H](O)[C@H](O)[C@H]6O)[C@H](O)[C@H]5O[C@@H]5O[C@H](CO)[C@@H](O)[C@H](O)[C@H]5O)[C@](C)(CO)C4CC[C@@]3(C)[C@]1(C)C[C@H]2O (some centres undefined) [Escin]
[1]
  nucleus area z-score: -0.21
[2]
  total neurite length per nucleus (z-score): -0.319
[3]
  nucleus roundness z-score: -0.228
[4]
  KCl-induced FOS+/EGR-1+ double-positive nuclei fraction z-score: 0.478

— the supplement of paper PMC11348887
